Article PMC6604950
No constants are given. Whether binding was seen depends on the method and setting. Binding seen in cells or lysates may run through a third protein. Some entries that bind do so weakly or less than the wild type.

Amino acid sequences for entries named in this document (tags omitted).
UniProt P72772: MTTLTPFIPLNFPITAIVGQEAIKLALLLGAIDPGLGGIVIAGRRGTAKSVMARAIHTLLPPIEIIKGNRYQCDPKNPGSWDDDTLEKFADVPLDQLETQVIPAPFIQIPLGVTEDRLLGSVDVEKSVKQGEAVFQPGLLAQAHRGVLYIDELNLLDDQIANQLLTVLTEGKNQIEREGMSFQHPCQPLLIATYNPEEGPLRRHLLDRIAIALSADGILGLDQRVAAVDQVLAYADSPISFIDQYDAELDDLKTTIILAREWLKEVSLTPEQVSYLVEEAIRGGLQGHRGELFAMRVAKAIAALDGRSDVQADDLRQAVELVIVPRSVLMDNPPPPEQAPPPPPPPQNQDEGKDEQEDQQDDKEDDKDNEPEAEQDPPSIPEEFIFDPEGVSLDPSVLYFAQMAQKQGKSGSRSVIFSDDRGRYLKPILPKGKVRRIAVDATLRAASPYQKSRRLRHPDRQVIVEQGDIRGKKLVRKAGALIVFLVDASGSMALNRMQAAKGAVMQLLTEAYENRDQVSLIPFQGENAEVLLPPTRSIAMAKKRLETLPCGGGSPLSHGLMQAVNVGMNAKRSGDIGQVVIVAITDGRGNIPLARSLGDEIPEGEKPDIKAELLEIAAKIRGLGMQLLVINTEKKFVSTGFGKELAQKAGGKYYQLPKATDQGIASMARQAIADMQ

Target: FLAG-ChlD (Synechocystis ChlD with an N-terminal 3xFLAG tag) (Synechocystis sp. PCC 6803) (UniProt P72772)
Assay: co-IP; anti-FLAG-M2 agarose column; soluble and 1.5% β-DDM-solubilised membrane fractions of Synechocystis; buffer A (25 mM sodium phosphate, 50 mM NaCl, 10 mM MgCl2, 10% glycerol, pH 7.4; +0.25% β-DDM for membranes); eluted with 3xFLAG peptide; immunoblot

| Binder | binding |
| --- | --- |
| ChlH (endogenous, Synechocystis) (protein, UniProt P73020 1-1331) MFTNVKSTIRRVDPEALNGRQLLKVVYVVLESQYQSALSAAVRNINRTNSSLAIQLTGYLIEELRDPENYANFKHDVSEANLFIASLIFIEDLADKVVEAVTPYRDNLDAAIVFPSMPQVMRLNKMGSFSMAQLGQSKSAIAQFMKKRKENSSGAGFQDAMLKLLRTLPTVLKYLPVEKAQDARNFMLSFQYWLGGSQENLENFLLMLTDKYVYPDLGLDKLVNYQEPVVYPDMGIWHPLSMQMFENVKDYLEWYNQRPDISEDLKDPLAPCIGLIMQRTHLVTGDDAHYVGMVQELEAMGARVICVFSGGLDFSKPVNEYFWDKSVNGVEPLPIVDAVVSLTGFALVGGPARQDHPRAIESLKKLNRPYMCALPLVFQTTEEWEASDLGLHPIQVALQIAIPELDGAIEPIILSGRDGSTGRAIALQDRLEAIAQRAMKWANLRKKPKLDKKVAITVFSFPPDKGNVGTAAYLDVFGSIYEVMKGLQGNGYDVQDLPGSAKELMEAVIHDAQAQYNSPELNIAHRMSVEQYERLTPYSVRLEENWGKPPGHLNSDGQNLLIYGKEFGNVFIGVQPTFGYEGDPMRLLFSRSASPHHGFAAYYTYLNHIWKADAVLHFGTHGSLEFMPGKQMGMSGECYPDNLIGTIPNLYYYAANNPSEATIAKRRGYASTISYLTPPAENAGLYKGLQELNELIGSYQTLKDSGRGIQIVNTIMDQARICNLDQDVNLPDINAEEMDQGQRDTIVGSVYRKLMEIESRLLPCGLHVIGQPPSAEEAIATLVNIASLDREDEGIWALPTLIAESIGRNMEEIYRNSDKGILADVELLQDITLATRAAVAALVQEQINADGRVSFVSKLNFFKIGKKAPWVKSLCDSGYPNVNEEKLKPLFEYLEFCLEQVCADNEFGGLLQALEGEYVLPGPGGDPIRNPNVLPTGKNIHALDPQSIPTLAAVQSAKVVVDRLLERQRAENGGNYPETIASVLWGTDNIKTYGESLAQIMWMVGAKPVPDALGRVNKIELVPLEELGRPRIDVVVNCSGVFRDLFINQMNLLDQAVKLAAEADEPLEMNFVRKHALEQAEEMGIGVREAATRIFSNASGSYSSNVNLAVENSSWEDESELQEMYLKRKSFAFNSDNPGMMDQNRDMFERALKTADATFQNLDSSEISLTDVSHYFDSDPTKLISTLRDDGKAPAAYIADTTTANAQVRTLSETVRLDARTKLLNPKWYEGMLSHGYEGVRELSKRLVNTMGWSATAGAVDNWVYEDANSTFIKDEEMCKRLMDLNPNSFRRMVSTLLEVNGRGYWETSDENLERLQELYQEVEDRIEGVE | binds |
| ChlI (endogenous, Synechocystis) (protein, UniProt P51634 1-357) MTATLAAPSKTRRVVFPFTAIVGQDEMKLALLLNVIDPKIGGVMIMGDRGTGKSTTIRALADLLPEIEVVANDPFNSSPSDPEMMSEEVRIRVDSQEPLSIVKKKVTMVDLPLGATEDRVCGTIDIEKALSEGVKAFEPGLLAKANRGILYVDEVNLLDDHLVDVLLDSAAGGWNTVEREGISIRHPARFVLVGSGNPEEGELRPQLLDRFGMHAEIRTVREPELRVKIVEQRTEFDQNPHPFCDQYQTEQEALQAKIVNAQNLLPQVTIDYDYRVKVSEVCAELDVDGLRGDIVTNRAAKALAAFEGRTEVTVDDISRVIVLCLRHRLRKDPLESIDSGSKVEKVFKRVFGVVDEA | binds |
